Laboratory results: publication PMC10005955
No constants are given. Whether binding was seen depends on the method and setting. Binding seen in cells or lysates may run through a third protein. Some entries that bind do so weakly or less than the wild type.

By UniProt entry, the sequences of proteins in these tests, tags left out.
UniProt Q9UHY1: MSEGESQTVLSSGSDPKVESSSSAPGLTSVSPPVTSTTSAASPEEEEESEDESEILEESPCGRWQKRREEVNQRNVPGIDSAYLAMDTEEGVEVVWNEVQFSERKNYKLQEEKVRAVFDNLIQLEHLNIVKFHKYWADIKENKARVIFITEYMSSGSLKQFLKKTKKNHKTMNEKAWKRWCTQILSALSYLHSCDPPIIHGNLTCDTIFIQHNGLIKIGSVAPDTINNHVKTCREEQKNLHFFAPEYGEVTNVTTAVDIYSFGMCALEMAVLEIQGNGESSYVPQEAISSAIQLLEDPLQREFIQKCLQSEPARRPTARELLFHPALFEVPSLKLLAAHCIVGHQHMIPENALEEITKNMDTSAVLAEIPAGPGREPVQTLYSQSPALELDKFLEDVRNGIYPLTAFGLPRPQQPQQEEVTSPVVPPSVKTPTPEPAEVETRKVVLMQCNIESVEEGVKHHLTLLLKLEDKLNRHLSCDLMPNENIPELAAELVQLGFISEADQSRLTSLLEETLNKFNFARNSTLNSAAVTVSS
UniProt P60953: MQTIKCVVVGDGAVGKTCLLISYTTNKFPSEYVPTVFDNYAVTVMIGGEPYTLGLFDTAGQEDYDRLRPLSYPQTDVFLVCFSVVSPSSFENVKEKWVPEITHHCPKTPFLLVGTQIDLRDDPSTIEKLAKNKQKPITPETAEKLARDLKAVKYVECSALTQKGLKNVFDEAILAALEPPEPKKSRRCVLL
UniProt Q8TCU6: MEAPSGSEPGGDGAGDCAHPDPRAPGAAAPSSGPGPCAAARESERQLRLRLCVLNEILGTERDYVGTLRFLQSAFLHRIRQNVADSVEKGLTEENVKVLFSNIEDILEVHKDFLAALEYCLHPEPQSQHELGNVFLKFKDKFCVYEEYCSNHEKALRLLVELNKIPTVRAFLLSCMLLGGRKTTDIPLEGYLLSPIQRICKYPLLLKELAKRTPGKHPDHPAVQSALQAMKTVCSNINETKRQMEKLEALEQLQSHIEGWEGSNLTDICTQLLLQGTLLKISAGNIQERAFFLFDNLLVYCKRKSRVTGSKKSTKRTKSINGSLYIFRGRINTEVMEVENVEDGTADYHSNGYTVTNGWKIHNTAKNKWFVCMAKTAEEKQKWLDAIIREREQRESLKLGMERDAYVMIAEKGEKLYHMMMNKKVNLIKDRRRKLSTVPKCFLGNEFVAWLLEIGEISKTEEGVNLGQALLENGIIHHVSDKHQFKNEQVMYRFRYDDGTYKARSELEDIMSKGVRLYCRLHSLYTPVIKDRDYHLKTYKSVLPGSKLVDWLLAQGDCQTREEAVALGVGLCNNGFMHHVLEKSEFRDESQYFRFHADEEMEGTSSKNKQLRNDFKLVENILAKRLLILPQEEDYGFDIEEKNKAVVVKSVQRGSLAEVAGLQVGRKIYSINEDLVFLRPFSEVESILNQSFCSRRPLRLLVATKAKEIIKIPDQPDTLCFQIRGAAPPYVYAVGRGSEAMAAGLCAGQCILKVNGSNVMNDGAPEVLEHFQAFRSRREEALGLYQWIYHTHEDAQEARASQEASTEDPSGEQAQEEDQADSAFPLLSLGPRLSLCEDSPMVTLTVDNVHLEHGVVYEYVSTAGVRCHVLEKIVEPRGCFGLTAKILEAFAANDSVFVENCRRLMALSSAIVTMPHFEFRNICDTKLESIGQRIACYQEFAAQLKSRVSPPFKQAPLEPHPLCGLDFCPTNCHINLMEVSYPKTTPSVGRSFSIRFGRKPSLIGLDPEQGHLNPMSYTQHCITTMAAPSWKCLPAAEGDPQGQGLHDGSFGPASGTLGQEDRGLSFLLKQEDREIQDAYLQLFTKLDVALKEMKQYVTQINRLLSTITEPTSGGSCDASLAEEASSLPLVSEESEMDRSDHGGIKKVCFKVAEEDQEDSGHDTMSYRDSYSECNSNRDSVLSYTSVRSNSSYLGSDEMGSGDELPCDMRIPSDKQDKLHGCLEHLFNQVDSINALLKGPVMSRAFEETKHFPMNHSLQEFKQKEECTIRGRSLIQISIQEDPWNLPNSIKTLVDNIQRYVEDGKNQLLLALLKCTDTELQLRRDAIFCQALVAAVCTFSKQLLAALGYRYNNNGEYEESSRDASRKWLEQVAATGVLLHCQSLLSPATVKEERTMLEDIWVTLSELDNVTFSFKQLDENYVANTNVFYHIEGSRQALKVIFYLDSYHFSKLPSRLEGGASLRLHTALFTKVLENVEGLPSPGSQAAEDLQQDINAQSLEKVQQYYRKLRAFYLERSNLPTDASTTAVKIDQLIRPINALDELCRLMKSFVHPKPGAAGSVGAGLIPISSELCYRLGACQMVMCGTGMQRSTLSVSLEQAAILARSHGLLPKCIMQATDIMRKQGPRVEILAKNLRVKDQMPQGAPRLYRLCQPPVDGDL

Target: Flag-tagged NRBP1 (UniProt Q9UHY1)
Assay: co-IP; Flag-tagged NRBP1 transfected into MFM-223 cells; lysate in normal lysis buffer; anti-FLAG M2 affinity-agarose beads at 4 °C for 2-4 h; Western blotting for endogenous proteins

Substance | binding
Cdc42 (from UniProt P60953 1-191) | binds
P-Rex1 (from UniProt Q8TCU6 1-1659) | binds
